Values from PubChem BioAssay AID1224830 (NIAID, 2016)
The whole screen tested about 18,000 reagents; shown is an unselected part. About 2,900 of them (16%) count as active. 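Calls are made per well; low scores hint the gene aids the LPS response, high scores that it dampens it.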 Repeated entries: four replicate wells of each siRNA pool.

- Screen: 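Genes whose knock-down alters the TNF-alpha reporter response to LPS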 (primary screen)
- Cell system: human THP-1 monocytic leukaemia cells, TNF dual-luciferase reporter clone, PMA-differentiated to macrophage-like cells
- Reagents: siRNA pool against human genes, 50 nM
- Time to read-out: LPS for 4 h, given about 3 days after siRNA transfection
- Conditions: bacterial LPS (TLR4 ligand), 10 ng/ml
- Measured: 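TNF firefly reporter luminescence divided by renilla, normalised to the plate median, then turned into a robust z-score for each replicate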
- Direction: TNF reporter robust z-score: higher = stronger TNF reporter response to LPS
- Call rule: 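Each well counts as active if its z-score is over 2.8 or under -1.5; controls are left without a call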

After knock-down of AKAP19 (A-kinase anchoring protein 19) the results were TNF reporter robust z-score 0.92; inactive.
Silencing of AKAP19 (A-kinase anchoring protein 19) gave: TNF reporter robust z-score 0.31; inactive.
Against AKAP19 (A-kinase anchoring protein 19) the deposit lists TNF reporter robust z-score 0.59; inactive.
After knock-down of AKAP19 (A-kinase anchoring protein 19) the results were TNF reporter robust z-score 0.49; inactive.
DEFB129 (defensin beta 129) gave TNF reporter robust z-score 0.61; inactive.
Knock-down of DEFB129 (defensin beta 129) came out at: TNF reporter robust z-score 1.34; inactive.
Knock-down of DEFB129 (defensin beta 129) came out at: TNF reporter robust z-score -0.28; inactive.
DEFB129 (defensin beta 129) scored TNF reporter robust z-score -0.88; inactive.
With knock-down of TNPO1 (transportin 1), the record shows TNF reporter robust z-score -0.23; inactive.
After knock-down of TNPO1 (transportin 1) the results were TNF reporter robust z-score 1.06; inactive.
Depletion of TNPO1 (transportin 1) came out at: TNF reporter robust z-score 0.95; inactive.
TNPO1 (transportin 1) scored TNF reporter robust z-score -0.42; inactive.
GDF6 (growth differentiation factor 6) showed TNF reporter robust z-score -0.87; inactive.
Silencing of GDF6 (growth differentiation factor 6) gave: TNF reporter robust z-score -0.56; inactive.
With knock-down of GDF6 (growth differentiation factor 6), the screen gave TNF reporter robust z-score -0.31; inactive.
GDF6 (growth differentiation factor 6) showed TNF reporter robust z-score 0.04; inactive.

Already shown: entries from further up.
GDF6 (growth differentiation factor 6): TNF reporter robust z-score = -0.87; activity call = inactive
GDF6 (growth differentiation factor 6): TNF reporter robust z-score = -0.56; activity call = inactive

The list goes on.
With knock-down of RAD51D (RAD51 paralog D) the results were TNF reporter robust z-score 0.21; inactive.
After knock-down of RAD51D (RAD51 paralog D), the screen gave TNF reporter robust z-score 0.38; inactive.
With knock-down of RAD51D (RAD51 paralog D), the screen gave TNF reporter robust z-score -0.05; inactive.
For RAD51D (RAD51 paralog D), the values are TNF reporter robust z-score 0.82; inactive.
Against PPP1R36 (protein phosphatase 1 regulatory subunit 36), the entry reads TNF reporter robust z-score -0.44; inactive.
Knock-down of PPP1R36 (protein phosphatase 1 regulatory subunit 36) gave: TNF reporter robust z-score -0.75; inactive.
After knock-down of PPP1R36 (protein phosphatase 1 regulatory subunit 36) the results were TNF reporter robust z-score -1.26; inactive.
For PPP1R36 (protein phosphatase 1 regulatory subunit 36) the deposit lists TNF reporter robust z-score -0.38; inactive.
Depletion of DRC5 (dynein regulatory complex subunit 5) resulted in: TNF reporter robust z-score -1.32; inactive.
With knock-down of DRC5 (dynein regulatory complex subunit 5), the record shows TNF reporter robust z-score 0.42; inactive.
DRC5 (dynein regulatory complex subunit 5) scored TNF reporter robust z-score 0.48; inactive.
For DRC5 (dynein regulatory complex subunit 5), the entry reads TNF reporter robust z-score 0.34; inactive.
Depletion of NAGA (alpha-N-acetylgalactosaminidase) resulted in: TNF reporter robust z-score 1.95; inactive.
With knock-down of NAGA (alpha-N-acetylgalactosaminidase), the record shows TNF reporter robust z-score 3.21; active.
Silencing of NAGA (alpha-N-acetylgalactosaminidase) came out at: TNF reporter robust z-score 0.23; inactive.
Silencing of NAGA (alpha-N-acetylgalactosaminidase) gave: TNF reporter robust z-score 2.48; inactive.
After knock-down of TADA2A (transcriptional adaptor 2A), the screen gave TNF reporter robust z-score 0.75; inactive.
For TADA2A (transcriptional adaptor 2A) the deposit lists TNF reporter robust z-score 0.53; inactive.
TADA2A (transcriptional adaptor 2A) gave TNF reporter robust z-score 0.25; inactive.
Against TADA2A (transcriptional adaptor 2A), the values are TNF reporter robust z-score 1.34; inactive.
SLC30A9 showed TNF reporter robust z-score -0.65; inactive.
Knock-down of SLC30A9 came out at: TNF reporter robust z-score -0.05; inactive.
After knock-down of SLC30A9 the results were TNF reporter robust z-score -0.88; inactive.
With knock-down of SLC30A9, the screen gave TNF reporter robust z-score -0.76; inactive.
MED13L (mediator complex subunit 13L) showed TNF reporter robust z-score 0.7; inactive.
With knock-down of MED13L (mediator complex subunit 13L) the results were TNF reporter robust z-score 1.37; inactive.
MED13L (mediator complex subunit 13L) showed TNF reporter robust z-score -0.03; inactive.
Against MED13L (mediator complex subunit 13L), the entry reads TNF reporter robust z-score 0.32; inactive.
Depletion of GFPT2 (glutamine--fructose-6-phosphate transaminase 2) resulted in: TNF reporter robust z-score 1.2; inactive.
GFPT2 (glutamine--fructose-6-phosphate transaminase 2) scored TNF reporter robust z-score 0.42; inactive.
After knock-down of GFPT2 (glutamine--fructose-6-phosphate transaminase 2), the record shows TNF reporter robust z-score 1.1; inactive.
Against GFPT2 (glutamine--fructose-6-phosphate transaminase 2) the deposit lists TNF reporter robust z-score -0.21; inactive.
